# Measured values reported in PMC12411628.
# By UniProt entry, the sequences of proteins in these tests, tags left out.
# UniProt P06730: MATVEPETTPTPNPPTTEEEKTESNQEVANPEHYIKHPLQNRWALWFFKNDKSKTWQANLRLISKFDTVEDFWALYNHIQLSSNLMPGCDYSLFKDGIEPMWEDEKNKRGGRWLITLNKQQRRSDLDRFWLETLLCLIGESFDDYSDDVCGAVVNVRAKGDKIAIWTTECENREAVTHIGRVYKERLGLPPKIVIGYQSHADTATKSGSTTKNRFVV
# UniProt O00303: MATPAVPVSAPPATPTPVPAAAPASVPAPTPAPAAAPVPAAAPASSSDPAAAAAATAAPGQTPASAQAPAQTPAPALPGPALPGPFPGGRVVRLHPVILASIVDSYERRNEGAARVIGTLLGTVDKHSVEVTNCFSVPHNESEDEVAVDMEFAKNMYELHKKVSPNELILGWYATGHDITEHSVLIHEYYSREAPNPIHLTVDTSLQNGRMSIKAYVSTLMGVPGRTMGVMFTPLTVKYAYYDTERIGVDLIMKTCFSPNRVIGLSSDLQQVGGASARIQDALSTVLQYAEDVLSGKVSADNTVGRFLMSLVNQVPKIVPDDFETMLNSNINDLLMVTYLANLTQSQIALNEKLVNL
# UniProt P55884: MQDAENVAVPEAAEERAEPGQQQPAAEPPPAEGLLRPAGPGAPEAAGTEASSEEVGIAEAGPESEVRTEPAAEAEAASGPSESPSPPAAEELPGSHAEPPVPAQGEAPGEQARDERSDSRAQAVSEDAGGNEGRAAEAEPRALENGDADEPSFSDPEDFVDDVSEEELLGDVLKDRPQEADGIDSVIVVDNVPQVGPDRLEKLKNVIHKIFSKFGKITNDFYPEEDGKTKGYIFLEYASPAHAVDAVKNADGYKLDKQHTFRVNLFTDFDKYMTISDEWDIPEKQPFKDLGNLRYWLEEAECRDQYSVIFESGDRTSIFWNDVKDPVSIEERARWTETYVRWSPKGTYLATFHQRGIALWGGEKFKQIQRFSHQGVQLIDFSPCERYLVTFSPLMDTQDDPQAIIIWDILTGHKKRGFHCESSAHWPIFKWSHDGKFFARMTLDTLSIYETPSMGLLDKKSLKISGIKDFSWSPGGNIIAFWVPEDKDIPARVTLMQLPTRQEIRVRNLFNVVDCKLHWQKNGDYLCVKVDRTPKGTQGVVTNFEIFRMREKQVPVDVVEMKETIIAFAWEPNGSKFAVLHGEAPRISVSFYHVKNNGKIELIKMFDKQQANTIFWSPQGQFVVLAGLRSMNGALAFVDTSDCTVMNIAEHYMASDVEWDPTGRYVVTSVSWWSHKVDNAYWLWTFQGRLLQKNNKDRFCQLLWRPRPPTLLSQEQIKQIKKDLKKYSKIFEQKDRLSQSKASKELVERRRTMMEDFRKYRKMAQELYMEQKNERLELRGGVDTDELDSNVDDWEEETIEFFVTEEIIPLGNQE
# UniProt P05198: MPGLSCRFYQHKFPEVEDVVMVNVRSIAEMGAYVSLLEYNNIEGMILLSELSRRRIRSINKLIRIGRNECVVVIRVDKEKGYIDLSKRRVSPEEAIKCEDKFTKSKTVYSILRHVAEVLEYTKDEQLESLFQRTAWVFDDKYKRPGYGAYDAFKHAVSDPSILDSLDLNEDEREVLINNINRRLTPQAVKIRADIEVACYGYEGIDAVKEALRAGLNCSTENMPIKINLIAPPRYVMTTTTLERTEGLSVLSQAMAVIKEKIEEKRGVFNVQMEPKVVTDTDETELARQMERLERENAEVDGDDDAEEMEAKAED
# UniProt O75821: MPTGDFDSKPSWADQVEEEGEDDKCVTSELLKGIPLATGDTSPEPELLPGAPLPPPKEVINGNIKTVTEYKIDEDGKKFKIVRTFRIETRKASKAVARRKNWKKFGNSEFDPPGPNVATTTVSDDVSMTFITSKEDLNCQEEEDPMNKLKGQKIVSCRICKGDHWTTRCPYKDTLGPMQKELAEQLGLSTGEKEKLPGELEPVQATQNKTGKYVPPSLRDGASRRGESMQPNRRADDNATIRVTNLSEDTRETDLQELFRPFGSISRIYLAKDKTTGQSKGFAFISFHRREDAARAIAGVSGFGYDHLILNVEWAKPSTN
# UniProt P60842: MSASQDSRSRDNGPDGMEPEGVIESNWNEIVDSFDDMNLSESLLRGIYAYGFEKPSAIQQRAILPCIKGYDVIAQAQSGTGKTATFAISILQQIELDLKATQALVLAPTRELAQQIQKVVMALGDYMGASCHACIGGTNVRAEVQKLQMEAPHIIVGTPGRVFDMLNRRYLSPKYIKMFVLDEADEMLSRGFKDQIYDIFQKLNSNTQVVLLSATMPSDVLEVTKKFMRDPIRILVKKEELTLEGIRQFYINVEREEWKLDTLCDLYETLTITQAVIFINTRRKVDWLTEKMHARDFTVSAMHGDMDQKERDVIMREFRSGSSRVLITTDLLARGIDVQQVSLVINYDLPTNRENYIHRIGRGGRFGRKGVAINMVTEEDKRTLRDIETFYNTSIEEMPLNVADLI
# UniProt Q13347: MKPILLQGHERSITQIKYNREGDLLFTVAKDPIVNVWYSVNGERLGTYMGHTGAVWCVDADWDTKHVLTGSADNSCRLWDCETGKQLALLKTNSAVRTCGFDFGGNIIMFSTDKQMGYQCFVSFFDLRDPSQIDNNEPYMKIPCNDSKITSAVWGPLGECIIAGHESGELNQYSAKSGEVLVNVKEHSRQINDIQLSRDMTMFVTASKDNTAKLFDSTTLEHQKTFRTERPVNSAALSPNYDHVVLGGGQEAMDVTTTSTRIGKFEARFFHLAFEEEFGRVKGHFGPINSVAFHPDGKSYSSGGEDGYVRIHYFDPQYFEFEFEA
# No constants are given. Whether binding was seen depends on the method and setting. For some assays here: In cells and extracts the contact can be indirect. Some results given as binding are weak or reduced against the parent protein; the word gives no strength. For some assays here: Tags and fused reporters may be left off the sequences shown.
# Columns and labels:
# [1] = target: T1, Flag-tagged Ephexin1 (human) (UniProt Q8N5V2); assay: co-IP; IP with anti-Flag antibody from extracts of HEK-293T cells transfected with Flag-tagged Ephexin1; IP150 lysis buffer (20 mM Tris–HCl pH 7.6, 150 mM NaCl, 0.5% Nonidet P-40, 10% glycerol); western blot; cells also treated with arsenite, heat shock or Torin1 (250 nM for 1 h)
# T1 sequence: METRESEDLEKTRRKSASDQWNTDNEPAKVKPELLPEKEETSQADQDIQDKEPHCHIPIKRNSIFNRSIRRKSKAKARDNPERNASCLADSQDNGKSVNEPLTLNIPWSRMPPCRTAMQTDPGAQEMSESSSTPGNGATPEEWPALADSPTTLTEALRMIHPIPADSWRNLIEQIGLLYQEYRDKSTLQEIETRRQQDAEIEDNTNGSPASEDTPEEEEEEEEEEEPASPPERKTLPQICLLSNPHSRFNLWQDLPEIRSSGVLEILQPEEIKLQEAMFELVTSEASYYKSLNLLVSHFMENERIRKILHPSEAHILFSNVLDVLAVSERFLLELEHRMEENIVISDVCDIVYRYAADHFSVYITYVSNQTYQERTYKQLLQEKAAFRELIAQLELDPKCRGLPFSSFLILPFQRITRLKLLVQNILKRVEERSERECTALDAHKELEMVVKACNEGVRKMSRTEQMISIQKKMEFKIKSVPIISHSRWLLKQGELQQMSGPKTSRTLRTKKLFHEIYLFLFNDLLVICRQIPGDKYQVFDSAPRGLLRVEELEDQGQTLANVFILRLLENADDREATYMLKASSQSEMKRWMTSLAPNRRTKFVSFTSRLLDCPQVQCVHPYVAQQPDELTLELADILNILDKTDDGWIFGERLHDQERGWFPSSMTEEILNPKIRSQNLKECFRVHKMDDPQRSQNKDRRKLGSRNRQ
# [2] = target: T2, GST-Ephexin1 (full-length) (human) (UniProt Q8N5V2); assay: pull-down; in vitro GST-pulldown: recombinant Hisx6-tagged translation factors with GST or GST-tagged Ephexin1 recombinant protein; both purified
# T2 sequence: T1 sequence
# [3] = target: T1, Flag-tagged Ephexin1 (human); assay: co-IP; co-IP from 40S ribosomal and polysome fractions (sucrose gradient) isolated from HEK-293T cells transfected with control or Flag-tagged Ephexin1; western blot
# [4] = target: eIF4E (human (endogenous in HEK-293T)) (UniProt P06730); assay: co-IP; IP with eIF4E antibodies; control and Ephexin1-deficient cells
binding [1],binding [2],Substance,further results
binds,,eIF4E (from UniProt P06730 1-217),
binds,,eIF3f (from UniProt O00303 1-357),
binds,,eIF3b (from UniProt P55884 1-814),
binds,,eIF2a (from UniProt P05198 1-315),
,binds,Hisx6-tagged eIF3g (from UniProt O75821 1-320),
binds,,eIF4A1 (from UniProt P60842 1-406),binding [3]: binds
,binds,Hisx6-tagged eIF3i (from UniProt Q13347 1-325),
binds,,eIF3i (from UniProt Q13347 1-325),binding [4]: binds
,binds,Hisx6-tagged eIF2α (from UniProt P05198 1-315),
